PubChem BioAssay AID1259329 | Drosophila RNAi Screening Center | 2017
Shown is a random part of 418 reagents tested. Over the whole deposit, 20 (4.8%) are marked active. 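All active calls have high ATP; no reagent fell below -1.5.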 A number with no mark means an inactive call. The numbers tell different reagents against one gene apart. Reagent sequences are not shown. The record does not give: the amount of reagent, the dose of the treatment.

Test: 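Water reference run beside parallel screens of metal toxicity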
System: Drosophila S2R+ cells
Reagents: long dsRNA against Drosophila genes
Time to read-out: 5 days (4 days knock-down, then 1 day after water)
Conditions: water added as vehicle control, no metal, one day before read-out
Detection: 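After 4 days of knock-down, water was added with no metal, and total ATP was read by luciferase light a day later on two plate copies, as mean z-score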
Reading the numbers: mean ATP z-score: higher = more total ATP, likely more viable cells
Call rule: 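a reagent counts as active if its z-score is greater than 1.5 or less than -1.5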

target gene | dsRNA no. | mean ATP z-score
Vps16A | 1 | 0.246
Vps16A | 2 | -0.701
Acox57D-p | 1 | 0.268
Acox57D-p | 2 | 0.147
CG9886 | 1 | -0.139
CG9886 | 2 | 0.442
CG9886 | 3 | -0.109
Hacl | 1 | -1.19
Hacl | 2 | -0.204
Sgsh | 1 | 0.739
CG17134 | 1 | 0.0581
ry | 1 | 0.136
ry | 2 | -0.381
ry | 3 | -0.449
Pmvk | 1 | -1.08
Pmvk | 2 | -1.48
Mcad | 1 | -0.502
Mcad | 2 | -0.733
CG17544 | 1 | -0.919
CG17544 | 2 | -0.901
Sod3 | 1 | -0.189
Sod3 | 2 | -1.1
Cln7 | 1 | 0.474
Cln7 | 2 | 0.655
Agps | 1 | -0.651
Agps | 2 | 1.52 (active)
Agps | 3 | -0.891
VhaAC45 | 1 | 0.673
VhaAC45 | 2 | 0.158
VhaAC45 | 3 | 0.931
Vps26 | 1 | 0.98
Vps26 | 2 | -0.174
CG15534 | 1 | 0.249
CG15534 | 2 | -0.194
CRAT | 1 | 0.602
CRAT | 2 | 0.757
VhaAC39-2 | 1 | -0.451
VhaAC39-2 | 2 | -1.38
Vha55 | 1 | 0.635
Vha55 | 2 | 0.284
Vha55 | 3 | 0.672
LManIII | 1 | 2.09 (active)
LManIII | 2 | -1.14
LManIII | 3 | -0.443
Vps20 | 1 | -0.233
Vps20 | 2 | -0.712
Vps20 | 3 | -1.25
AP-1sigma | 1 | -0.648
AP-1sigma | 2 | -0.511
CG10194 | 1 | -0.254
VhaM9.7-c | 1 | -0.64
VhaM9.7-c | 2 | 1.59 (active)
CG1607 | 1 | -0.68
CG1607 | 2 | -1.49
Vha13 | 1 | -1.37
Vps24 | 1 | -0.384
Vps24 | 2 | 1
Vps24 | 3 | 0.062
sbm | 1 | 0.272
sbm | 2 | -0.242
CG10474 | 1 | 0.479
VhaSFD | 1 | -0.106
VhaSFD | 2 | -1.33
VhaSFD | 3 | -0.821
g | 1 | -0.498
g | 2 | 0.0527
Vps36 | 1 | 0.142
Vps36 | 2 | -0.526
Idh | 1 | 0.0514
Idh | 2 | -0.715
Idh | 3 | 1.02
Acox57D-d | 1 | 0.199
Acox57D-d | 2 | 0.0202
CG7049 | 1 | -1.08
CG7049 | 2 | 1.37
Pex5 | 1 | -0.013
Pex5 | 2 | -1.32
Pex5 | 3 | -1.26
Parp1 | 1 | 0.565
Parp1 | 2 | 0.832
Parp1 | 3 | -1.11
Vha26 | 1 | 0.0846
Vha26 | 2 | -0.517
Vha26 | 3 | -0.852
Vha100-2 | 1 | 0.772
Vha100-2 | 2 | -0.146
Npc1a | 1 | -0.657
Npc1a | 2 | -0.634
Npc1a | 3 | 0.346
ATP6AP2 | 1 | -0.231
ATP6AP2 | 2 | -0.862
ATP6AP2 | 3 | 2.22 (active)
CG6638 | 1 | -0.264
CG6638 | 2 | -1.05
gb | 1 | 0.144
gb | 2 | -0.418
pic | 1 | 0.378
pic | 2 | -0.299
pic | 3 | -0.431
